Test results taken from PubChem BioAssay AID651640 (Broad Institute, 2012).
Screen size: about 350,000 compounds; about 6,000 (1.7%) were called active. This list was built around the results that the source calls inconclusive (neither active nor inactive); the mix of calls is not that of the screen. Rule as the data show it: active = CPE inhibition above about 20% (passing the limit was not always enough); inconclusive = no clear call, values can overlap the other calls; tested in BHK-21 cells.

Experiment: protection of cells from dengue 2 killing – plate reader, single concentration, primary screen (AID 651640);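 also: 0% = median of neutral control wells and 100% = median of positive control wells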
Details: DENV2-infected cells, cytopathic effect rescue, at 9.99 µM, hits give high values

Structure (SMILES)	CPE inhibition
C[C@@H]1CN([C@@H](C)CO)S(=O)(=O)c2ccc(C#Cc3ccccc3F)cc2O[C@H]1CN(C)C(=O)Cc1cccnc1	inactive: -2.43%
C[C@H]1CN([C@@H](C)CO)C(=O)Cc2cc(NC(=O)Cc3cn(C)c4ccccc34)ccc2O[C@@H]1CN(C)Cc1ccccc1	inconclusive: 38.3%
Cc1cccc(S(=O)(=O)N(C)C[C@H]2OCc3cnnn3CCCC(=O)N([C@H](C)CO)C[C@H]2C)c1	inconclusive: 57.1%
COc1ccc(CN(C)C[C@@H]2OCCCC[C@H](C)Oc3ccc(NS(=O)(=O)c4ccc(F)cc4)cc3C(=O)N([C@@H](C)CO)C[C@@H]2C)cc1	inconclusive: 24.3%
O=C(OCc1cn([C@H]2CN(C(=O)C3CCCCC3)[C@@H](c3ccccc3)C[C@@H]2O)nn1)c1ccccc1	active: 24.9%
CC(=O)c1cccc(NC(=O)N2CCCC2C(=O)NC2CCCC2)c1 (stereo not given)	inactive: -0.301%
Cc1cc(C(=O)N[C@H](c2ccccc2)[C@@]2(C)C[C@@H]2[C@@H](C)C(=O)Nc2ccc3ccccc3c2)no1	inconclusive: 59.3%
CSc1ccc(CN(C)C(=O)c2cc(S(=O)(=O)NCc3ccccc3)ccc2C)cc1	inconclusive: 33.2%
Cc1ccc(CNS(=O)(=O)CCNC(=O)c2ccc3c(c2)OCO3)cc1	inactive: 3.81%
COc1ccc(CC(=O)Nc2ccc(S(=O)(=O)N3CCN(C)CC3)cc2)cc1	inactive: -3.79%
COc1ccc2c3c(n(C)c2c1)[C@@H](CO)N(C(=O)Cc1ccccn1)CC31CN(CC2CCCC2)C1	inactive: -4.97%
CC(C)(C)C(=O)Nc1c2c(nn1-c1cccc(Cl)c1)CS(=O)(=O)C2	inconclusive: 31.4%
COc1ccc2c3c(n(C)c2c1)[C@@H](CO)N(C(=O)c1ccccc1)CC31CN(C(=O)c2ccccc2)C1	inactive: -2.53%
CN1CCN(C(=O)C[C@@H]2CC[C@@H]3[C@H](COc4ccc(NC(=O)C5CCCC5)cc4C(=O)N3C)O2)CC1	inactive: -2.66%
Cc1ccc(S(=O)(=O)N(C)C[C@H]2Oc3c(NS(=O)(=O)c4c(C)noc4C)cccc3C(=O)N([C@H](C)CO)C[C@H]2C)cc1	inactive: -6.14%
COCC(=O)N(C)C[C@@H]1Oc2cc(C3=CCCCC3)ccc2S(=O)(=O)N([C@@H](C)CO)C[C@@H]1C	inactive: 16.6%
CCNC(=O)N(C)C[C@H]1N[C@@](CC)(C(=O)OC)[C@H]2C(=O)N(Cc3ccccc3)C(=O)[C@@H]12	active: 28.6%
CS(=O)(=O)N1CC2(C1)[C@H](c1ccccc1)[C@@H](CO)N2Cc1ccccn1	inactive: -5.43%
CC1(C(=O)NCc2cccs2)Cc2c(-c3cccc(C(F)(F)F)c3)ccnc2O1 (stereo not given)	active: 27.2%
C[C@H](CO)N1C[C@H](C)[C@H](CN(C)C(=O)CN(C)C)Oc2ncc(C#Cc3ccccc3)cc2C1=O	active: 50.6%
C[C@H](NC(=O)C[C@@H]1CC[C@@H](NC(=O)CN2CCOCC2)[C@@H](CO)O1)c1ccccc1	inconclusive: 21.7%
COc1cc(OC)cc(C(=O)Nc2ccc(N3CCN(C(=O)c4cccs4)CC3)cc2)c1	active: 52.9%
Cc1ccc(S(=O)(=O)N2CCN(C(=O)C3CC(=O)N(c4ccc5c(c4)OCCO5)C3)CC2)cc1 (stereo not given)	inconclusive: 53.5%
CCn1c(SCC(=O)N2CCCCC2)nc2c([nH]c3ccccc32)c1=O	inconclusive: 43.6%

An excerpt from above in order of number of heavy atoms, ascending.
Structure (SMILES)	CPE inhibition
Cc1ccc(S(=O)(=O)N2CCN(C(=O)C3CC(=O)N(c4ccc5c(c4)OCCO5)C3)CC2)cc1 (stereo not given)	inconclusive: 53.5%
C[C@H]1CN([C@@H](C)CO)C(=O)Cc2cc(NC(=O)Cc3cn(C)c4ccccc34)ccc2O[C@@H]1CN(C)Cc1ccccc1	inconclusive: 38.3%
COc1ccc(CN(C)C[C@@H]2OCCCC[C@H](C)Oc3ccc(NS(=O)(=O)c4ccc(F)cc4)cc3C(=O)N([C@@H](C)CO)C[C@@H]2C)cc1	inconclusive: 24.3%

The list continues:

Structure (SMILES)	CPE inhibition
CC(Sc1nccn1C)C(=O)c1c(N)n(C)c(=O)n(C)c1=O (stereo not given)	inconclusive: 53.8%
C[C@H]1CCCCO[C@H](CN(C)S(=O)(=O)c2ccc(Cl)cc2)[C@@H](C)CN([C@@H](C)CO)C(=O)c2cc(NS(=O)(=O)c3cn(C)cn3)ccc2O1	inactive: 1.67%
CO[C@H]1CN(C)C(=O)c2cc(NS(=O)(=O)c3ccc(C)cc3)ccc2OC[C@@H](C)NC[C@@H]1C	inconclusive: 21.7%
CC(=O)NCc1ccc(C(=O)COC(=O)COc2ccc(Cl)c(C)c2)s1	active: 65%
c1ccc(C2CCCN(Cc3nc(CC4CC4)no3)CC2)cc1 (stereo not given)	inactive: 7.25%
CN(C)C(=O)c1ccc(-c2ccc(C3[C@@H]4CN(Cc5cncnc5)C[C@H]3N4)cc2)cc1 (stereo not given in full)	inconclusive: 55%
OC[C@H]1[C@H](c2ccc(C#Cc3ccccc3F)cc2)[C@H]2CN(Cc3cncnc3)CCCCN21	inactive: -23.8%
Cc1ccccc1S(=O)(=O)N(C)C[C@@H]1OCc2ccccc2-c2ccccc2C(=O)N([C@H](C)CO)C[C@H]1C	inactive: -1.39%
O=C(Nc1ccc(Cl)c(Cl)c1)N[C@@H]1CC[C@H](CCn2cc(C3CCCCC3)nn2)O[C@H]1CO	inactive: 10.6%
COc1ccc(Cc2nnc(NC(=O)c3ccccc3F)s2)cc1OC	inactive: -3.22%
O=C(NC1=NN(c2ccccc2)CC1)Nc1ccccc1F	inconclusive: 44.2%
Cc1ccc(-c2cnc3c(c2)C(=O)N([C@H](C)CO)C[C@@H](C)[C@H](CN(C)C(=O)c2ccncc2)O3)cc1	inconclusive: 5.75%
Cc1ccc(S(=O)(=O)NCC[C@@H]2CC[C@@H](NC(=O)CC3CC3)[C@H](CO)O2)cc1	inactive: -0.719%
CCC(=O)Nc1ccc2c(c1)C(=O)N(C)C[C@H](OC)[C@H](C)CN(CC1CC1)[C@H](C)CO2	inactive: 3.06%
C[C@@H]1CN([C@@H](C)CO)C(=O)c2cc(C3=CCCCC3)cnc2O[C@@H]1CN(C)S(=O)(=O)c1cn(C)cn1	inconclusive: 45%
CN1c2ccc(C#Cc3cccnc3)cc2[C@H]2[C@H](CCN2C(=O)c2cccnc2)[C@H]1CO	inconclusive: 28%
C[C@@H]1CN([C@H](C)CO)C(=O)c2cc(Br)cnc2O[C@H]1CN(C)S(=O)(=O)c1ccc(F)cc1	inactive: -1.11%
CCS(=O)(=O)N1CCC2(CC1)CN(C(=O)c1ccc(F)cc1)[C@@H](CO)c1[nH]c3cc(OC)ccc3c12	inactive: -3.81%
O=C1c2cccc([N+](=O)[O-])c2C(=O)N1c1ccccc1	inactive: 3.57%
COC(=O)c1ccc(NC(=O)CNc2ccccc2)cc1	inactive: -6.76%
O=C(Cc1cccnc1)N1CC[C@H]2[C@H](CO)Nc3ccc(C#Cc4cccc(F)c4)cc3[C@H]21	active: 62.5%
CC(C)C#Cc1ccc2c(c1)O[C@@H](CN(C)CC1CC1)[C@@H](C)CN([C@@H](C)CO)S2(=O)=O	inconclusive: 42.3%
COc1cc2c(cc1OC)CN(CC(=O)Nc1cccc(C(F)(F)F)c1)CC2	inconclusive: 21.1%
O=C1CN(S(=O)(=O)c2ccccc2)C[C@@H]2[C@H](c3ccc(C#CCc4ccccc4)cc3)[C@@H](CO)N12	inconclusive: 32.8%

Structure (SMILES)	CPE inhibition
C/C(=N\NC(=O)c1cc(-c2ccc(C)s2)nc2ccccc12)c1cccnc1	inconclusive: 44.4%
C[C@H](CO)N1C[C@H](C)[C@@H](CN(C)C)Oc2c(NC(=O)c3ccc(-c4nccs4)cc3)cccc2C1=O	inconclusive: 54.7%
C[C@@H]1CN([C@H](C)CO)C(=O)c2c(c3ccccc3n2C)-c2ccccc2CO[C@@H]1CN(C)Cc1cccc2c1OCCCO2	active: 28%
COc1cccc(Nc2nc(NCCO)nc(N3CCCC3)n2)c1	inconclusive: 23.3%
OC[C@H]1Nc2ccc(-c3cccc(F)c3)cc2[C@H]2[C@@H]1CCN2Cc1ccncc1	inconclusive: 25.7%
CC(C)C(=O)Nc1ccc2c(c1)C(=O)N(C)[C@H]1CC[C@H](CC(=O)N[C@H](C)c3ccccc3)O[C@H]1CO2	inconclusive: 21.1%
CC(=O)Nc1cccc(-c2ccnc3c2CC(C)(C(=O)Nc2ccccc2)O3)c1 (stereo not given)	inconclusive: 51.4%
CC(C)NC(=O)N(C)C[C@H]1Oc2ncc(-c3cccc(C#N)c3)cc2C(=O)N([C@@H](C)CO)C[C@@H]1C	inconclusive: 22.7%
CC(=O)N(C)C[C@@H]1Oc2ncc(-c3cncnc3)cc2C(=O)N([C@@H](C)CO)C[C@@H]1C	inconclusive: 20.8%
C[C@@H]1CN([C@@H](C)CO)C(=O)CCCn2cc(nn2)CO[C@@H]1CN(C)S(=O)(=O)c1ccc2c(c1)OCCCO2	inconclusive: 20.2%
COc1ccc(C(C(=O)NC(C)(C)C)n2c(-c3ccc(=O)[nH]c3)nc3ccccc32)cc1 (stereo not given)	inconclusive: 42.5%
OCCNCCCCOc1cccc(Br)c1	active: 39.1%
COc1cc(OC)cc(C(=O)NCc2ccc3c(c2)OCO3)c1	active: 29.4%
COc1ccc(C)cc1NC(=O)c1nnn(Cc2cccc(F)c2)c1N	inconclusive: 28.4%
N#Cc1cccc(-c2ccc3c(c2)[C@H]2[C@H](CCN2S(=O)(=O)c2ccc(F)cc2)[C@H](CO)N3)c1	inconclusive: 23.8%
CO[C@@H]1CN(C)C(=O)c2ccc(NC(C)=O)cc2OC[C@@H](C)NC[C@@H]1C	inactive: -12.1%
Cc1cc(C(=O)CN2C(=O)C(=O)N(CC(C)C)C2=O)c(C)n1-c1ccccc1F	inactive: -15.8%
O=C(C1CCOCC1)N1C[C@@H]2[C@H](c3ccccc31)[C@@H](CO)N2Cc1ccccc1F	inactive: -9.08%
O=C(Cn1cnc2c(NCc3ccccc3)ncnc21)NCCc1cc2ccccc2[nH]1	inconclusive: 23.3%
O=C(C[C@H]1C[C@@H]2c3cc(NC(=O)Nc4ccccc4F)ccc3O[C@@H]2[C@@H](CO)O1)NC1CCCC1	active: 22.9%
CCN1CCN(CCOCCOc2ccccc2)CC1	inconclusive: 21.2%
COc1cccc(OC)c1OCCN1CCN(C(c2ccccc2)c2ccccc2)CC1	inconclusive: 21.3%
